Literature values as cited in patent EP0839036B1, “USE OF 1,4-DIHYDROPYRIDINE DERIVATIVES IN THE PREVENTION AND THERAPY OF ATHEROSCLEROTIC DEGRADATION OF ARTERIAL WALLS” (RECORDATI S.A. CHEMICAL and PHARMACEUTICAL COMPANY, priority 1995, dated 1997).
Like-named read-outs stand apart in the source and are kept apart here. For at least one compound, name, drawing or mass did not settle the structure.

Tested on: smooth muscle cells (SMCs)
Conditions: cited from earlier work

COC(=O)C1=C(C)NC(C)=C(C(=O)OC)C1c1ccccc1[N+](=O)[O-] [nifedipine]
effect on smooth muscle cells (10^-5M): shows effect
effect on smooth muscle cells (10^-6M): no activity
